Measurements taken from paper PMC11841255.
No constants are given. Whether binding was seen depends on the method and setting. In cells and extracts the contact can be indirect. Here binding means that the protein was enriched with, or labelled near, the bait; the list need not be complete. Where a sequence is shown, tags or fusion partners need not be part of it.

The chains behind the UniProt entries cited, without tags or fusion partners.
UniProt Q13263: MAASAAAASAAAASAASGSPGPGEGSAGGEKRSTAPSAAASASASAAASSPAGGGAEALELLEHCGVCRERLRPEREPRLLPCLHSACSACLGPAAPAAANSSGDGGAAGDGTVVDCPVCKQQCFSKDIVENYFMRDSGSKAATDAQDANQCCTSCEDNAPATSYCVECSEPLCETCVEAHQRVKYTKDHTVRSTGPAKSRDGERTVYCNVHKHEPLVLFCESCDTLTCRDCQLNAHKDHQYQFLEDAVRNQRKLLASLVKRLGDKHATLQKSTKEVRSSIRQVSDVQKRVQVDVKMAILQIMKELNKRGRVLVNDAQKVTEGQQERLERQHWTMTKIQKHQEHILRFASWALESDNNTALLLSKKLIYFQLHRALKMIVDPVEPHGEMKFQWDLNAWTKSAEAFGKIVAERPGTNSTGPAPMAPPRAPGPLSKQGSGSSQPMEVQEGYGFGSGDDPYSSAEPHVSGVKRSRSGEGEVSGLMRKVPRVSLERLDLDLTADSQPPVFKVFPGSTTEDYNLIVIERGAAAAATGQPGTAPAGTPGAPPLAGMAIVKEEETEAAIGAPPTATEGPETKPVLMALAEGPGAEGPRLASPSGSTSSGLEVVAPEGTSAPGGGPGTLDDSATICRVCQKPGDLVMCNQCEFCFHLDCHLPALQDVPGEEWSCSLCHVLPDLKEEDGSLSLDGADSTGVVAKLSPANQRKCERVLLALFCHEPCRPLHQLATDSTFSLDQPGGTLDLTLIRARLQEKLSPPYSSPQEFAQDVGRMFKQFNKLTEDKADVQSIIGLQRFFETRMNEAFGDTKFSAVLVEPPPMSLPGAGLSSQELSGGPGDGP

Biological target: T1, GFP-CDCA3 (UniProt Q99618)
T1 sequence: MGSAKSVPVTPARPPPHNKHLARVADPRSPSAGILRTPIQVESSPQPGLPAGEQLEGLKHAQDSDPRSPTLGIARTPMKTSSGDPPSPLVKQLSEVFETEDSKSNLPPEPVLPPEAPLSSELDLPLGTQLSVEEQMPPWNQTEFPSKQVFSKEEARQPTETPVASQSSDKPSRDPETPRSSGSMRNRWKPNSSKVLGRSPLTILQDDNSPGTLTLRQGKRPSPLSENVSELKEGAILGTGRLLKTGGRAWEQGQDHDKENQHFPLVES
Test: affinity purification with mass spectrometry; GFP-CDCA3 plasmid transfected into 293T cells, Co-IP, then LC-MS of the precipitate (trypsin digest, ThermoFisher Fusion, PEAKS Online 11)

Tripartite Motif Containing 28 (TRIM28), endogenous (from UniProt Q13263 1-835)
binding: binds
